Our source for the binding values is article PMC7738898.

By UniProt entry, the sequences of proteins in these tests, tags left out. Where a name states a change or a piece, a line headed by the entry shows the natural chain unless it says otherwise. Residues count along the entry.
UniProt P42224: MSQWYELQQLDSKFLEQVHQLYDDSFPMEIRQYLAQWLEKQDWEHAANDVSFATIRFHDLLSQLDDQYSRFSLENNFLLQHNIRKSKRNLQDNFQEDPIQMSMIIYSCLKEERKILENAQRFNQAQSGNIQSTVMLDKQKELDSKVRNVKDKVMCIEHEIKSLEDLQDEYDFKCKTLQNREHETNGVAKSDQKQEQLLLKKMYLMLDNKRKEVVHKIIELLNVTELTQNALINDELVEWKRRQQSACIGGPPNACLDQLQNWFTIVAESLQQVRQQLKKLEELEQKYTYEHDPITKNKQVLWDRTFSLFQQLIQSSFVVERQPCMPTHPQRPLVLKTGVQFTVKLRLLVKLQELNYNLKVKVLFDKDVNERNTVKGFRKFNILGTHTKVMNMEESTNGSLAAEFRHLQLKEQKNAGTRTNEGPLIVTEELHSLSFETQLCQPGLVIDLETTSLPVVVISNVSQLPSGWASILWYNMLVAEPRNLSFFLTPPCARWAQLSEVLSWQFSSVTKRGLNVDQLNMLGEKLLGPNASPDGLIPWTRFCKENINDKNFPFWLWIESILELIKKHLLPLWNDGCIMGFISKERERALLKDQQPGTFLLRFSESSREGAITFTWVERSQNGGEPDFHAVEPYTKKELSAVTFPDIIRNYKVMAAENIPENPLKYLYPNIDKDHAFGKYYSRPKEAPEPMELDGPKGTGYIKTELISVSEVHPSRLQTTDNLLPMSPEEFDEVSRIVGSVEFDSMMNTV
UniProt O75159: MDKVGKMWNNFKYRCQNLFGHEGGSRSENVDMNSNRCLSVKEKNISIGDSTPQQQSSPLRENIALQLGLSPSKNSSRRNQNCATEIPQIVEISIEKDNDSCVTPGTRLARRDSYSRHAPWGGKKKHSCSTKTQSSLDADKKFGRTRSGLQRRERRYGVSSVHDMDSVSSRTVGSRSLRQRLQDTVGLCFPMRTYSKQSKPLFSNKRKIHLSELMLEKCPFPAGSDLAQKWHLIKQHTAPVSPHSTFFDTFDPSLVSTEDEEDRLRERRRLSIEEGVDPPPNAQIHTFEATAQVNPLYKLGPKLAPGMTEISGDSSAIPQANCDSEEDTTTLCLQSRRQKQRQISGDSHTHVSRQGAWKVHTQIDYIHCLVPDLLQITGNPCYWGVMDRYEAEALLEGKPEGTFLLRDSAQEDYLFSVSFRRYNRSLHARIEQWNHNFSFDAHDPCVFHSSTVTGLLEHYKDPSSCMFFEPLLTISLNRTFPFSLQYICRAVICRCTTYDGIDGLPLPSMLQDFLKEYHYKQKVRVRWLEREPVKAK
UniProt P12109, residues 20-1028: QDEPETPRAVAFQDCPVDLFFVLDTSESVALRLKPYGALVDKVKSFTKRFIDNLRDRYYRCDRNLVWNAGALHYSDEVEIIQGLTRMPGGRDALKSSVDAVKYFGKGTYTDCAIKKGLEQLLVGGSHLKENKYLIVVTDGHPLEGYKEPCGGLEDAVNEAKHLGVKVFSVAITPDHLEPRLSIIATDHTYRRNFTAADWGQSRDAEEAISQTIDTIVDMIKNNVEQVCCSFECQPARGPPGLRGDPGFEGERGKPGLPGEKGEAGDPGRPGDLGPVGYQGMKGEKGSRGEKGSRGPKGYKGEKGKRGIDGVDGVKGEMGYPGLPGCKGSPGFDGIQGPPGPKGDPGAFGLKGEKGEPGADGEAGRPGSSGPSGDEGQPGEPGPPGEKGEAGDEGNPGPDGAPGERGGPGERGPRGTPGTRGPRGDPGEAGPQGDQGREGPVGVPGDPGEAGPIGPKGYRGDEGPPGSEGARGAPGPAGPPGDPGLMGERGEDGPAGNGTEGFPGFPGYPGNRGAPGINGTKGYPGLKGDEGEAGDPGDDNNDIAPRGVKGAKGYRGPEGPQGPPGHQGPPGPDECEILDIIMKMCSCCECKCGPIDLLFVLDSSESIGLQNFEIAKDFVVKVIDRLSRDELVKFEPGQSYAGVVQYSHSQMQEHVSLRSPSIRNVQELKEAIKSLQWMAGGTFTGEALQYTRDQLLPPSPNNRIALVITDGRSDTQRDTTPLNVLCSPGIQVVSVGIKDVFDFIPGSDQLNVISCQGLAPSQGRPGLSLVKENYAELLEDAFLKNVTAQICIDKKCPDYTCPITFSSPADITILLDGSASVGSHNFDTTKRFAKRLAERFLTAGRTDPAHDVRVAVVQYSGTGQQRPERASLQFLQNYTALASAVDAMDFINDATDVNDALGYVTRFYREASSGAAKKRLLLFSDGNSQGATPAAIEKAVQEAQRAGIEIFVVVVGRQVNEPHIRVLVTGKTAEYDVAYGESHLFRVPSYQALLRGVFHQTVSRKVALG

These are yes or no findings as the source states them, for the method shown. Binding seen in cells or lysates may run through a third protein. Some entries that bind do so weakly or less than the wild type.

One assay has as its target GFP-tagged STAT1 (Y701A) (UniProt P42224). The assay can be described thus: co-IP; Figure S6C-D; COL6A1 pulled down with wild-type or mutant STAT1; cells and antibodies not shown.
The next assay concerns the target GFP-tagged STAT1 (S727A) (UniProt P42224). The description is as above.
For assay [1], the target named is GFP-tagged wild type STAT1 (UniProt P42224). The description is as above.
Assay [2] concerns the target endogenous STAT1 (signal transducer and activator of transcription 1) (human (endogenous in U2OS)) (UniProt P42224). The experiment in a line: co-IP; U2OS cells after COL6A1 transfection; endogenous STAT1 and SOCS5; precipitating antibody not told.
In assay [3] the target is endogenous SOCS5 (suppressor of cytokine signaling 5) (human (endogenous in U2OS)) (UniProt O75159). Described as above.
Assay [4] addresses GFP-tagged wild type STAT1 (UniProt P42224). The assay can be described thus: co-IP; 293T cells with GFP-STAT1 and Flag-COL6A1 (wild type or VWFA domain deletion mutants); cell lysates incubated with antibody-conjugated beads at 4 °C for 2 h, western blot.

On to “COL6A1 (collagen type VI alpha 1), transfected expression vector (from UniProt P12109 20-1028)”, for which the binding result (with GFP-tagged STAT1 (Y701A); with GFP-tagged STAT1 (S727A); in assay [1]; in assay [2]; in assay [3]) was “binds” each time.

As to “Flag-COL6A1 wild type (collagen type VI alpha 1) (from UniProt P12109 20-1028)”, in assay [4], the binding entry is “binds”.

“endogenous STAT1 (signal transducer and activator of transcription 1) (from UniProt P42224 1-750)”: the binding entry in assay [3] is listed as “binds”.
